{"source": "PubChem BioAssay AID1053208 (Peter MacCallum Cancer Centre, 2014)", "purpose": "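Find knock-downs that sensitise mouse osteosarcoma cells to doxorubicin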 (primary screen)", "cell system": "mouse osteosarcoma cells, early-passage culture from an engineered mouse model of fibroblastic bone tumour", "reagent": "siRNA pool against mouse genes, 40 nM", "duration": "about 120 h (48 h before drug, then 72 h with drug)", "treatment": "doxorubicin 100 nM for 72 h, roughly 30-40% inhibitory dose", "detection": "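Viability read as ATP luminescence after 72 h of 100 nM doxorubicin or none, duplicate wells averaged, scaled to non-targeting siRNA, then expressed as robust z-scores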", "scale": "viability z-score with doxorubicin: higher = more viable cells under doxorubicin; viability z-score without drug: higher = more viable cells with knock-down alone", "rule for the call": "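Called active if knock-down leaves viability unchanged without drug (z within -2 to 2) but lowers it with doxorubicin (z at or under -2)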", "note": "The deposit covers about 17,000 reagents; below is a random part of them. 788 of them (4.7%) were called active. 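Calls rest on z-score classes alone; an extra cut-off of viability at most 70% of control was not applied to them.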 Unmarked entries are inactive. Not all columns of the deposit are shown."}
{"Target gene": "Nefm (GeneID 18040)", "combined z-score class": "no change with or without drug", "viability z-score with doxorubicin": -0.45, "viability z-score without drug": -0.84}
{"Target gene": "Asb2 (GeneID 65256)", "combined z-score class": "no change with or without drug", "viability z-score with doxorubicin": -0.56, "viability z-score without drug": -0.17}
{"Target gene": "Or4e5 (GeneID 57269)", "combined z-score class": "no change with or without drug", "viability z-score with doxorubicin": 0, "viability z-score without drug": -1.18}
{"Target gene": "Or5d35 (GeneID 258845)", "combined z-score class": "no change with or without drug", "viability z-score with doxorubicin": 0.34, "viability z-score without drug": -0.51}
{"Target gene": "Crat (GeneID 12908)", "combined z-score class": "no change with or without drug", "viability z-score with doxorubicin": -0.45, "viability z-score without drug": -0.84}
{"Target gene": "Gtf3c6 (GeneID 67371)", "combined z-score class": "low cell count without drug only", "viability z-score with doxorubicin": 0.22, "viability z-score without drug": -3.71}
{"Target gene": "Fam133b (GeneID 68152)", "combined z-score class": "no change with or without drug", "viability z-score with doxorubicin": -1.57, "viability z-score without drug": -0.84}
{"Target gene": "Enpp1 (GeneID 18605)", "combined z-score class": "no change with or without drug", "viability z-score with doxorubicin": 0.9, "viability z-score without drug": 1.01}
{"Target gene": "Pfdn6 (GeneID 14976)", "combined z-score class": "no change with or without drug", "viability z-score with doxorubicin": 1.01, "viability z-score without drug": 0.51}
{"Target gene": "Nvl (GeneID 67459)", "combined z-score class": "no change with or without drug", "viability z-score with doxorubicin": 0.11, "viability z-score without drug": -1.52}
{"Target gene": "Mapre1 (GeneID 13589)", "combined z-score class": "no change with or without drug", "viability z-score with doxorubicin": 0, "viability z-score without drug": -0.84}
{"Target gene": "Rap2a (GeneID 76108)", "combined z-score class": "no change with or without drug", "viability z-score with doxorubicin": -0.9, "viability z-score without drug": 1.18}

Copied from above, 2 entries:
{"Target gene": "Mapre1 (GeneID 13589)", "combined z-score class": "no change with or without drug", "viability z-score with doxorubicin": 0, "viability z-score without drug": -0.84}
{"Target gene": "Rap2a (GeneID 76108)", "combined z-score class": "no change with or without drug", "viability z-score with doxorubicin": -0.9, "viability z-score without drug": 1.18}
